# Over roughly 33,000 sequences, “E-score (-0.5 to 0.5)” has its median near -0.0034; the highest 2% begin near 0.25. The list shows a part of the results.
# Biological target: T1, Yap3 (UniProt P38749)
# T1 sequence: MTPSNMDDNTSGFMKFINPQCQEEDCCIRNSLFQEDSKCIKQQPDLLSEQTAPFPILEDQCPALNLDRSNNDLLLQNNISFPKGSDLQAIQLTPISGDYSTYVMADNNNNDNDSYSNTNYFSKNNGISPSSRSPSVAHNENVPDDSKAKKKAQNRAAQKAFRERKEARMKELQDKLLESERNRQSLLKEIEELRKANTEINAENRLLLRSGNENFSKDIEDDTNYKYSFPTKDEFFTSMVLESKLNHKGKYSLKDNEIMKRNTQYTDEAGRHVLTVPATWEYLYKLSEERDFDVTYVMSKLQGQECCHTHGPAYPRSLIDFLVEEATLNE
# Experiment: PBM E-score (8-mer binding enrichment) (E-score (-0.5 to 0.5)); higher = stronger / more preferred TF binding
# Conditions: protein concentration: 100 nM; construct: GST-full length
# In short: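 For each ungapped eight-base word taken together with its reverse complement, the Universal PBM Analysis Suite assigned an E-score. Binding data came from GST-tagged yeast transcription factors, applied at about 100-200 nM, on universal all-10-mer Agilent arrays made double-stranded by primer extension. Fluorescent anti-GST marked bound protein, and scans were normalised with masliner.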
row,Sequence,PBM E-score
1,GGGAATTA,0.216
2,GACGCCTC,0.0387
3,ACCGTTAC,0.0653
4,AAGAAGGC,-0.171
5,CGTAGCTC,0.154
6,CATTTAAG,0.0358
7,GTAAAGAA,0.153
8,CGAATGAC,0.222
9,CCTCATCA,0.0365
10,TCGATTCA,0.152
11,CCCACGCC,-0.256
12,ATACGAAT,0.0837
13,GTTACAGA,-0.0601
14,ATCTCTCG,-0.0155
15,GACCTTGC,-0.191
16,AAGTTTAT,0.172
17,AGGTGCAC,0.0822
18,GCATAGCA,-0.0494
19,AATATAGA,0.191
20,AAACTCCT,-0.324
21,ACAGAAAA,0.198
22,AGATCATA,0.203
23,CCGCAAGA,-0.0321
24,AAAGGCAA,0.254
25,ATTCGCAA,0.171

row,Sequence,PBM E-score
1,CACTACTA,0.0953
2,CACCCATG,-0.014
3,GTATCCCA,-0.0472
4,GGGGTCTA,-0.117
5,AACTGTTA,0.223
6,CCTGCGTA,-0.194
7,AAGGTTAT,0.00255
8,CAAAGCTG,0.0236
9,AACCGAGT,-0.197
10,ATATGAGC,0.0205
11,GGCATACC,-0.0877
12,CAATAAGC,-0.0566
13,AGTAGTAC,0.22
14,ATGAGACA,0.0872
15,GACCGAAC,-0.0488
16,GCATCGCC,-0.239
17,AGTGCGTG,0.0026
18,ACACGTCG,-0.239
19,AATGGTTC,0.062
20,GAGTGGCC,-0.0813
21,GGCAAAGA,0.183
22,AAGGTAAG,0.0708
23,TATGCGCA,-0.00704
24,CATTTGGC,-0.0439
25,GTGACTTA,0.074

row,Sequence,PBM E-score
1,ACGCCTGA,-0.0833
2,ACTTTCCT,0.0313
3,CGCAAGCC,0.0375
4,GACGGCAA,0.0761
5,ATGACTTC,0.0321
6,CCCAATTC,0.249
7,AGTAAGGA,0.244
8,TCATGGCA,0.0155
9,TAACCCAA,0.199
10,CGTCGAGC,-0.00084
11,ACGCGACC,-0.151
12,CAATCGCG,0.0859
13,GGCAGGGA,-0.161
14,CCTAAGCA,-0.0486
15,GCGTGACA,-0.016
16,CTGCTATA,0.103
17,ACCATGTC,0.0148
18,CGGTTTTA,-0.106
19,CATTCCCC,-0.0111
20,CAATCGAG,-0.173
21,GAAATGCA,0.189
22,GCGCTGCC,-0.293
23,ATCACGGG,-0.0316
24,AAGCTCTA,0.0753
25,CGACGGCA,-0.0914

# For convenience, part of the list above.
row,Sequence,PBM E-score
7,AGTAAGGA,0.244
8,TCATGGCA,0.0155

# The list continues:

row,Sequence,PBM E-score
1,GACATGAC,-0.0923
2,GGTAATTA,0.221
3,CCGAATTC,0.14
4,GGAAGTAA,0.111
5,CGCTGGAA,-0.151
6,GACATTCA,0.00974
7,AGCAGTCC,-0.201
8,CGCGCTGA,0.0303
9,ATAGATAC,0.173
10,GTACACGA,0.0891
11,CCGTATGA,0.0641
12,TTACTGAA,0.128
13,GAAAAGAC,0.166
14,CGCCTTAC,-0.0859
15,TCTGCTCA,0.00765
16,CAAAAGGG,-0.0725
17,AGGCCCTG,-0.162
18,GAAAAAAA,0.287
19,CCGGTTTC,-0.00052
20,CTAAGACA,0.0522
21,GACAAATC,0.175
22,CTAGACGC,-0.19
23,CTAAAGAG,0.00356
24,AACCCGCG,0.183
25,CTAAACAG,-0.00506

row,Sequence,PBM E-score
1,CGGTGACA,0.0776
2,AACATGTG,0.192
3,CATAGCAC,0.0592
4,CCCCGACG,-0.0828
5,CCGTACCA,0.156
6,ATTACTTA,0.257
7,CTTATTTC,0.251
8,CGTTACCA,0.145
9,CCACCGGG,-0.362
10,CATTTAAA,0.246
11,AGGCCAGA,-0.0392
12,CCGGTTTA,0.0317
13,GTCATAAC,0.0863
14,CATCACTA,-0.0162
15,AAAAGTGC,0.0748
16,GAATCATA,0.153
17,GCACCGAC,0.00219
18,GATTTACA,0.202
19,AGTTTTTG,0.224
20,GGATTAGA,0.0149
21,AGATAACG,0.247
22,GAAGCTGA,-0.0626
23,CACTACGA,0.00399
24,GCCTCCCA,-0.251
25,GAACGACA,0.131

row,Sequence,PBM E-score
1,GGCAGGAC,-0.211
2,ACGTTGCT,0.109
3,CACTGTAC,0.0111
4,CATAATGC,0.114
5,CACATGCG,0.0891
6,ACATCATA,0.194
7,CCATCCCC,-0.274
8,AGATTATG,0.129
9,AATTAGCC,0.0688
10,AGCGTGGG,-0.0987
11,CCGGTCCC,-0.233
12,ATTACGAG,0.228
13,TCGTCACA,0.013
14,AGAAAAAC,-0.00619
15,CTCTTAGA,-0.0363
16,CCTCTTCA,-0.19
17,ATAAGTAA,0.236
18,ATAAATAA,0.307
19,CAATGGAA,0.166
20,GTGAGCCA,0.00058
21,GCCCCTGA,-0.138
22,AACTTGCA,0.108
23,ACGGTTTG,-0.111
24,CGGGATCC,0.0776
25,CTTTACTA,0.22

# 3 entries from above, with tabs:
row	Sequence	PBM E-score
13	TCGTCACA	0.013
20	GTGAGCCA	0.00058
23	ACGGTTTG	-0.111

# A second format for part of the listing above:
row | Sequence | PBM E-score
13 | AGTAGTAC | 0.22
16 | GCATCGCC | -0.239
5 | CCGTACCA | 0.156
6 | ACATCATA | 0.194

# Remaining list, next part.

row,Sequence,PBM E-score
1,CCGTGAAA,0.0883
2,CCACTTTC,0.0563
3,AACTAAAT,0.102
4,ACAGGCCC,-0.291
5,AATCACCA,0.203
6,CACTAGCA,-0.019
7,ATGGGCTG,-0.183
8,AGATACGA,0.237
9,TACCAAAA,0.192
10,CATTCTTC,0.0193
11,GTAACGAC,-0.0321
12,CCCACTGC,-0.0698
13,GGCCACGA,-0.048
14,CAGCCCAA,-0.0513
15,TAGCTCCA,-0.0175
16,AGTGGCGG,-0.0571
17,CGAACCGA,-0.0278
18,TCGTGCCA,0.00074
19,CAGGGACG,-0.121
20,TCGGCCAA,-0.117
21,CGAATGGC,0.0852
22,CCGTCAAA,-0.0141

# — the supplement of paper PMC3334620
